# Screening data

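Genome-wide siRNA knockdown in TC32 Ewing sarcoma cells, comparing luciferase light from an NR0B1-promoter reporter with a CMV-promoter reporter 48 hours after transfection. Each siRNA was applied at 20 nM. A z-score of the log NR0B1-over-CMV signal, less the median of siRNAs with the same seed; more negative means a stronger specific loss of the NR0B1 reporter.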

This is part of the screen; most of the strongest results are not listed here. Sequences are the guide (antisense) strand, without overhang.

siRNA | target gene | seed-corrected z-score
UCUAUGUCCUGUAUCAGUG | SEMA4G | -0.9074
UACGGUAGAAGGUAUCAGC | GDPD2 | -0.574
UUAUCCUCGAUCUUGACCC | MYOM3 | 0.3274
UCACGAAGUAUUCGGACCC | MSLN | -0.7912
UGAUCGUCCGUCUCAAGCC | FAM174A | -0.3877
UAAUUCACUGUCAUGACCU | MRPS25 | 0.3661
UUUGUAGUCAAAGCUGAGG | NXPH4 | -0.2295
UUAAUAGCAAUACAGGAAG | ACTR3 | -0.5291
UGACAUAUCUGGGUCUAUC | TAF2 | 0.478
AAGGGUGACAGUUUAAUGG | FBXL7 | 0.4634
UCCUCUUUGUCGAUGAAGC | MYL10 | 0.2354
UAACGAGUGAUACUUGAUC | MRI1 | -0.1349
UCUUCAAUCUUGUAGUGCC | C14orf166 | 0.9737
UCAUAGUCAAGAGAGCUUC | FKBP3 | -0.8665
AAACGAAACAGUUGGGAUC | AKAP10 | -0.7431
UUCUCGUACAAUUUGGUUC | IRX3 | 0.2055
UCGGAUUUGAUGAGAGUGG | KMT2D | -1.037
UUUUGGAGUAAGAGCAGGG | PHGR1 | -1.599
UUCUGCGAAGGCUUGAGGC | DOC2A | -0.3751
AUUCUGGUUUUUGUGGCUC | LOC646626 | -0.6626
UCUUGACCCUCUAAGUUGC | ZNF571 | -0.1379
UUUUCUAUUUCCCACAAUC | HDGFRP3 | 0.8123
UACGAGUCAUAGAUCAUGU | FAM57A | 0.3169
UCUGGGUCGAGGUUGUUCA | WAS | -0.4816
UCUUGUAGCAACCUGGACA | RPS27L | 0.7119
AGAUACAUUAGAAUCGGCC | SLF2 | 0.08125
UAGCCUAUUUUGCACAUGC | RGS22 | 1.093
UUAAGCUUCGGAAGAAUGG | FAM131B | 0.1005
UCUGCGAACAAUAGGUUUC | TIMD4 | 0.03608
UUUGCAUGGAUAGGAAGCC | N4BP3 | -0.9463
UCUAUGUGGACAAAUGAGG | IPO5 | -0.03399
UUGGUUUUGAGAGCCUGGG | EPN2 | 0.8958
AUCUGGAUAAGCAUAUUGU | MRFAP1L1 | 0.05607
AAUUUUGUCUGUUAGAACC | LUC7L3 | 0.3591
UUGGUUAUCAUCUAAGUAG | NUP98 | -0.4928
UUUUGGACUCUGUCUCUAC | CCDC58P3 | 0.6151
UAUCCAUAUUUAUAAGUCC | STIL | 0.4689
UCUGUCACAAUGGAGUCCU | SLC22A8 | -0.9522
UUCGGCUUAACUGCCUUGG | HIST1H1B | 0.1346
UCACAGACUUGGAACGGGC | USP21 | -1.25
AUCUCUGCAAAAGCUACCC | ATP5H | -0.6827
UGUUUUCUAAGGUAGGUGC | SSX2 | 0.7223
UUCUCAUUCUCGUUAAUCC | FZR1 | -0.4865
UCAUCGUCAGAAUACAUCC | CLASP1 | -0.09938
UCAUGAUUGAAUUAGGGCC | JPH1 | 2.45
AACUCGAUGAAAACUUGCC | ANAPC4 | -0.03321
UCACCUAUUGAAGAGGUGC | ZNF767P | -0.5076
UUCUUGGUGGGUGUAAUGC | SPACA5B | 0.5582
UGUCGAAAAAGGCUAGAGC | ZNF551 | -0.1304
UUCAUGUAAACAAGAAGGG | SLC25A43 | 0.6365
UUCUAGACUACCGGUUUUG | PSME4 | -0.2332
UUUGGAUGCAGUGUUCCGG | IFT172 | 2.19
UUAUCUUCCAGAGUACCAG | SPDL1 | 0.1478
UUAUCCUCCACUGGUAUCC | MPP7 | -0.05669
UUUCUCUAAGGUAAUCUUC | DNAH14 | -0.02418
UUAAGAACAGGGUAUCUAC | NAP1L3 | 0.132
UCAGGGUCUCGCAUGUACU | LSM7 | -0.8449
AUCCGUUAAAGACAUGUUC | TJP2 | 0.08193
UUGGAAAUGAAGCUCAUGU | C7orf55 | 1.365
UGCUAUAUAAGAGCACCGC | APPBP2 | -0.9642
AAAUCAUCCUUUAUCAAGC | SNAPC1 | 1.073
UCACAGUGCAGUUAACUCG | FLJ26850 | 0.6402
ACAGGGUUCAUGCCGUAGC | CNN2 | -0.3402
UGAUGAUUCAGGGAAGGAU | KLRC2 | 0.115
AUCUGUAUCGCUUGGUUAC | RAE1 | -0.02015
UUUGGAACGAGCACGAGCA | ING4 | 0.4744
UUCUGUAACACUCGACAGG | MURC | -0.7748
AACGAUUUAUCACUGAUUC | CC2D2A | 0.9932
AACUCGUCACUCAUCCUCC | BAD | 0.03485
UUAAUGUACAUGAAGAUAC | OR6C75 | -1.049
AUACAGAUAAGAGAUGAGC | OR5H6 | -0.8962
UAAGAGUCCACAGCAACCG | ALG12 | 0.475
UAUUCGCAUAUUUACUCUC | ATP8B1 | 0.4511
UUCUUAAGUACGCUGAGAC | RPP25 | -1.276
UUUCGAUUCUCUGUCUUCC | SEMA5A | 0.2565
UCAUUAGAAAAUGUGAGGC | RRM2 | 0.4331
AAAGCAACUCUUUCAUUCG | OR6C70 | 0.07369
UUGAGAGUCAGUUUUAUUG | ETFB | -0.4015
UCAUUGAUAACAGCAUUGC | KIF1B | -1.133
UAUGUCUUAGGCUCUGCAG | C14orf177 | -1.607
UACGCUAACAGGAACCAGC | SECISBP2L | 0.1141
UCAAUGAUGUCGUAGAUGC | NPAS4 | -0.5242

Once more, the final 10:

UAUUCGCAUAUUUACUCUC against ATP8B1 gave seed-corrected z-score 0.4511.
UUCUUAAGUACGCUGAGAC against RPP25 gave seed-corrected z-score -1.276.
UUUCGAUUCUCUGUCUUCC against SEMA5A gave seed-corrected z-score 0.2565.
UCAUUAGAAAAUGUGAGGC against RRM2 gave seed-corrected z-score 0.4331.
AAAGCAACUCUUUCAUUCG against OR6C70 gave seed-corrected z-score 0.07369.
UUGAGAGUCAGUUUUAUUG against ETFB gave seed-corrected z-score -0.4015.
UCAUUGAUAACAGCAUUGC against KIF1B gave seed-corrected z-score -1.133.
UAUGUCUUAGGCUCUGCAG against C14orf177 gave seed-corrected z-score -1.607.
UACGCUAACAGGAACCAGC against SECISBP2L gave seed-corrected z-score 0.1141.
UCAAUGAUGUCGUAGAUGC against NPAS4 gave seed-corrected z-score -0.5242.

Data taken from PubChem BioAssay AID1159506, deposited by NCATS (2015).